# Assay results reported in patent publication US12636293B2, “Methods of treating charcot-marie-tooth disease” (CMTx Biotech Inc., priority 2019, dated 2026).
# At least one structure is not confirmed: it was looked up by name or label, or the drawing left a doubt.
# Test system: Charcot Marie Tooth Disease symptoms (neuropathic pain)
# Experiment: Case of a subject with Charcot Marie Tooth Disease treated with sub-antimicrobial dose doxycycline
# Assay type: in vivo, human
# Conditions: 20 mg twice daily; after approximately 2 weeks of continued twice-daily treatment
# Protocol: The subject described the pain during the daytime hours as a 2/10 and during the evening hours as a 6/10, and experienced this pain consistently for the prior 10 years. The subject began taking a sub-antimicrobial dose of doxycycline, i.e., 20 mg twice daily (i.e. Periostat®). […] Throughout the treatment period, the subject described the pain during daytime hours as a 1/10, and during the evening hours also as a 1/10. […] Within 1 week of discontinuing twice-daily sub-antimicrobial dose doxycycline treatment, the subject experienced a return of the neuropathic pain in a sporadic manner.
structure (smiles),measurement,value
"C[C@H]1c2cccc(O)c2C(=O)C2=C(O)[C@]3(O)C(=O)C(C(N)=O)=C(O)[C@@H](N(C)C)[C@@H]3[C@@H](O)[C@@H]21 [doxycycline, 6α-deoxy-5-hydroxytetracycline]",change in neuropathic pain,dramatic reduction in neuropathic pain
